Results are given in words; binding and its absence hold for the method and conditions named. In cells and extracts the contact can be indirect. Here binding means that the protein was enriched with, or labelled near, the bait; the list need not be complete.
Biological target: Taf2 with C-terminal streptavidin-binding peptide tag, subunit of Komagataella phaffii TFIID (Komagataella phaffii) (UniProt F2QRH9)
Test: affinity purification with mass spectrometry; TFIID purified from K. phaffii nuclear extract by the SBP tag at the C-terminus of Taf2 (streptavidin beads, 250 mM potassium acetate, elution with 10 mM biotin, 10–30% sucrose gradient); SDS-PAGE and mass spectrometry of the purified complex

B1: Taf12, subunit of Komagataella phaffii TFIID (natural protein, UniProt F2QSK7 1-609, looked up)
chain: MNQPPNQPQDNDSQVSSSGMQGGNSMNYSSSAPVNGAGQGPQPQQNSQGQNGKKPVGMQQAQIQLLARRYQLEMQKAHQLGPQTPQGAEHLQTATKIKHVLLSYQQQRQRQQGQVQGQGLSQPQGQNQAQGRVQQQTQGLSPDPGSHQGSPQFQQPHQVMMGSAQTAGTSIANPQAQSNISSQVSQMAAAKVNSASPPIPPKTVGTPTGTPVGTQPRGQVTIQQFQQVKSILEEFEKKLRTIEAAKRDQNLPEETLQKLLRQEAILKQRYAQTKATAYQMSQHLQRQQQALRAASAESAEVYVTGSASSPNMNVYNQQILTQQPQQQLQQQQLHQPQPQQPQPARQSPHLLIHQQQQQQQQQQQQQQQQQQHPVTHRPSNVSQTMPQPSQPLQSSTPSSAVGRNQSPGATPVTSVNAAAKPSPGTSSTSTLINQHILKPAPPPTEIPARLQVKPPQPAAMKIPNRPTLLGGSAISQPSLTTPVSIRPPPLEMEGDHVLQKRKLKELLRNVGADEGDGETVIDGDVEELLLDLADEFVTSVTSFACRLAKHRKVDNIDMRDVQLHLERNWNIRVPGYASDEIRSVRKFQPTAGYNQKVQGVAISKSVNKN
notes: Taf12, TFIID subunit of the yeast Komagataella phaffii (formerly Pichia pastoris); histone-fold domain modelled in the cryo-EM map; source: endogenous, K. phaffii nuclear extract; co-purified in TFIID by SBP-tagged Taf2 (streptavidin beads, sucrose gradient)
  binding: binds

B2: Taf3, subunit of Komagataella phaffii TFIID (protein, UniProt F2QPA6 1-314)
chain: MPKSSFYFSYLRITIIQLLKSQGFDRCSNTVIDALTDTTIRFLGLLLEKTAKYTASRGESLDDVQIQDISEALTELKIITPCNLLDPYDVSPDNLQGIQNFESWFIGPYPDRARQVARPSKQYIAEVNESLDPSTQFRSKNRIPEYMNSFKKQEEQIDNTGDFPLDEDWIRFNLRVELKRNQAHDSKLKNSVLQPYISNVLEDVQRKNGVNGNGSTDKYATNYDFIITGPTPDKLMQYLPYINSDDEEDDDSYEEENEDSEDQDEDDGDRNNEHNKNDEYGNENQPEQTTPDFDYEEHNDEDDNRQKLKIRLNI
  binding: binds

B3: Taf4, subunit of Komagataella phaffii TFIID (natural protein, UniProt F2QWX2 1-411, looked up)
chain: MSSTPDGSTPVDSGKRTSDQIDVGEYKRVKVERGNRSETVDSGLIDMSNSVGASLDIPTPDQLNPTNTGVQTPSLHQPGESISAHSLSLPGETSVGGSTGISRENTPQVRPDVSVSQSSSQLHQRNESFPGLSVSKSTTSLNKDTMFDNRKRLLGNNGANPNGQKSSDPEKLSDALTAAGVDLKEEESLLSQSTVIQQSRRQLSTLSSFLHPVHLATFMRRVMENNGLRNYVDHDTELLSYMSSACEGFMAGILTDSVILANHRKRPIKSKLKHSTTPRSDVSKVLRDIATKQKEREEQRVQKRVTLDIEGQEDDGKSKQDNEEVLHRAANATAMMMTSKSKKKKYSWMNADSGAQGGKTNSVLARGDSGIRYRDAREEPGLVLRDLLGALEGRRMCVANTVVKGYARMND
notes: Taf4, TFIID subunit of the yeast Komagataella phaffii (formerly Pichia pastoris); histone-fold domain modelled in the cryo-EM map; source: endogenous, K. phaffii nuclear extract; co-purified in TFIID by SBP-tagged Taf2 (streptavidin beads, sucrose gradient)
  binding: binds

B4: Taf5, subunit of Komagataella phaffii TFIID (natural protein, UniProt F2QWD3 1-722, looked up)
chain: MKQEPGDSSDKSAPSGSITPQPKPPQQANVSNQQPQKPQQFSAADLNRIVLEYLNKKGYHKTESMLRMESSHIPAPPTNIPTPQTTNISRPTAPGRAPEYSDDPATIKRGYSILKSWCESSLDFYRPELEKFLYPVFVHCYLDLIARGYPSHAREFYDKFSKDHSVLHEYEISKLGGISLKEHLQENDVAKIFRSHKFKVLIGRTTFNLLLYFLNENDAVGGGVVLRLINQYIEPVITTEAIAVEREGELNLSEGIVELHTLNNTSIGGEQREISSVDAFNKKPVKLGKLQVDPEYSKELEAELKLKDEHEQAAQKKVSTTLLEEYRENFKVDPSDENNPSKDTLPLPLKSAQDLRNDIAMIQDSRAKIKLSAAQASLPSVCMYTFHNTNNDLTCLKFNDDSTMVASGFQDSFIKLWSIDGSPLRSLLKNDPYNQQNNDGVAVKGSRRLVGHSGAVYGVDFSPDNRYLISCSEDKTVRLWSLDTYTCLVSYKGHSSSVWDVKFSPMGHYFATASHDQTARLWSCDHIYPLRIFAGHLNDVDCVEFHPNSTYLFTGSSDKTARMWDIARGECVRVFMGHSGAINCLAVSPDGRWLASAGEDSVVCLWDISTGRRIKAMRGHGRSSIYSLAFSREGTVLVSTGADNSVRVWDVKKNTNSPSAQPEPINDVTAQGIQKKTEDLRRRKEIVATNDHMSVYFTKKTPVYTVHFTRRNLCLAGGVFGG
notes: Taf5, TFIID subunit of the yeast Komagataella phaffii (formerly Pichia pastoris); WD40 repeat and NTD (residues 99–243) modelled in the cryo-EM map; two copies in holo-TFIID; source: endogenous, K. phaffii nuclear extract; co-purified in TFIID by SBP-tagged Taf2 (streptavidin beads, sucrose gradient)
  binding: binds

B5: Taf6, subunit of Komagataella phaffii TFIID (natural protein, UniProt F2QMA7 1-485, looked up)
chain: MSKNSQRSSIPTSHTLWSPSDTVKDAAESLGIFNLNEEAAKNLAMDIEYRIHEILDQASKFMRHGKRRTLHTSDIDRALKVLNLEPLYGYDVSRPLVFKEALVGAGQNLYYVDDDEVDFEKLINEPLPKVPRFSTFTAHWLAIEGVQPAIPQNPSPNDIKNILPINRGSMENMFSLINDEVKEDTNEEFTSTGPSVSSNISNQKQGLEVKPLVKHVLSRELQLYFDKIVEVLLNQEETKEAELLRNSALQSVRADPGLHQLVPYFIQFISETITKNLKNISLLSTMLELIYSLLMNESLFLEPYVHAIIPCILTLLLAKKIGNVDDELQKQQQLALRELSASLLERVIEDFGSSYSTLKPRITRTLLRAFVSVNNTTPGTQYGALLGLRGLGSEVIRIVVLGNVINWSSTFLEKLQQEDQVFLIDTLIETLRVLTKEGKLVKDMKTENGIDNERLKQRVGDLIADRIQACDDAQDIYWGIFFGEV
notes: Taf6, TFIID subunit of the yeast Komagataella phaffii (formerly Pichia pastoris); HEAT repeats (residues 213–486) and histone-fold domain modelled in the cryo-EM map; two copies in holo-TFIID; source: endogenous, K. phaffii nuclear extract; co-purified in TFIID by SBP-tagged Taf2 (streptavidin beads, sucrose gradient)
  binding: binds

B6: Taf9, subunit of Komagataella phaffii TFIID (natural protein, UniProt F2QTW3 1-153, looked up)
chain: MTNEQAAIPRDVRLLHLIFATQNIYSYQDHVPLQLMDFAYRYTTGTLQDATIYSDHAHASGSHISNAGNAGTNAQLTTEDIRLAIAARTNYQFKPVPPKELLLELAAERNKKPLPAVIPTWGIRLPPEKYCLTGKDWVLEDEEEAVSYKKRKT
notes: Taf9, TFIID subunit of the yeast Komagataella phaffii (formerly Pichia pastoris); histone-fold domain modelled in the cryo-EM map; source: endogenous, K. phaffii nuclear extract; co-purified in TFIID by SBP-tagged Taf2 (streptavidin beads, sucrose gradient)
  binding: binds

B7: Taf10, subunit of Komagataella phaffii TFIID (natural protein, UniProt F2QLJ9 1-217, looked up)
chain: MSTEKLFEDLDEDSLMQDVEGGVEGSMTIEEEPEPNDEKEAPHISMPSLPEYTRKDKTLEEILEMMEDEEFTPIIPDAVTDYYLAKNGFETSDIKIKRILALATQKFISDIAQDAYEYSRIRSSSSVYTSANPQARARQLVAGQQQQQQQQPQQQQQQQPQTGASQPAPTVGGSGGGGGGGGGTSTGTNNKVVLTMDDLRSALGEYGINVKRPNFYR
notes: Taf10, TFIID subunit of the yeast Komagataella phaffii (formerly Pichia pastoris); source: endogenous, K. phaffii nuclear extract; co-purified in TFIID by SBP-tagged Taf2 (streptavidin beads, sucrose gradient)
  binding: binds

— publication PMC6220335, “Molecular structure of promoter-bound yeast TFIID” (Nature Communications, 2018)
